Screen size: about 1,800 compounds; fewer than 10 were called active.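 The calls were made as follows: active = inhibition of granule release above a set limit; inactive = the rest.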 Some of the results follow.
assay: inhibitors of lytic granule exocytosis, flow cytometry, TALL-104 cells, validation set (AID 651664); details: TALL-104 LAMP-1 externalization, at 15.2 µM, stronger effect = higher value, stimulated with thapsigargin and PMA

inhibition, inactive:
CC(C)CN(C(=O)CSc1nnc2ccccn12)c1c(N)n(CC(C)C)c(=O)[nH]c1=O -2.6%
COc1cc2c(C(=O)N3CCN(c4ccccc4)CC3)c(C)oc2cc1Br 0.3%
CC(C)CC(=O)Nc1ccc(C(=O)Cn2nc(C(=O)O)c3ccccc3c2=O)cc1 -3.3%
O=C(c1ccc(Cl)cc1)C(Cn1cncn1)C(Sc1ccccc1)c1ccccc1 (stereo not drawn) 0.6%
Cc1nc(N)c(C#N)c(-c2ccccc2Cl)c1C -3%
COc1ccc2c(c1OC)C(=O)OC2Nc1nc(-c2ccccc2)cs1 (stereo not drawn) -1.5%
Cc1nc2ccc(NC(=O)c3sccc3C)cc2s1 0.1%
O=C(c1ccco1)N(Cc1cc2ccccc2[nH]c1=O)C1CCCCC1 -2.8%
O=C(COC(=O)c1ccccn1)Nc1c(Cl)cccc1Cl 0.4%
CC1(C)CC(=O)c2c(nc3ccccc3c2N)C1 -1.6%
Nn1c(SCC(=O)N2CCc3ccccc3C2)nnc1-c1cccs1 0.7%
Cn1nc(-c2ccccc2)c2nc3ccccc3nc21 1.8%
O=C(NNS(=O)(=O)c1ccccc1)c1ccncc1 -3.7%
CC(CN1CCCCC1)OC(=O)c1ccccc1Cl (stereo not drawn) 1.6%
CCC(C(=O)N1CCc2ccccc2C1)n1nc(C)n2c(cc3occc32)c1=O (stereo not drawn) 11.8%
CCOc1ccc2nc(NC(=O)c3ccoc3C)sc2c1 -3.2%
Cc1nn(CCC(=O)O)c2nc(-c3cccnc3)cc(C(F)(F)F)c12 -3.2%
CCOc1ccc(C(C)NC(=O)CCC(=O)O)cc1 (stereo not drawn) -2.7%
CCn1c(C)nc2cc(C(=O)NNS(=O)(=O)c3ccc(C)c(C)c3)ccc21 -1.7%
O=C(CSCc1ccccc1)N1CCN(c2cccc(C(F)(F)F)c2)CC1 -1.6%
CSc1nc(-c2ccc(Cl)cc2)nn1C(=O)c1ccco1 7%
CCN1CCN(CC(=O)Nc2sc3c(c2C#N)CCC(C)C3)CC1 (stereo not drawn) -7%
Cc1ccc(S(=O)(=O)/N=C(/Nc2ccccn2)c2ccc(Cl)cc2)cc1 -5.5%
O=S(=O)(CCc1nc2ccccc2o1)c1ccc(Cl)c(Cl)c1 -2.2%
N#CC1=C(N)OC2=C(CN(Cc3ccccc3)C/C2=C\c2cccnc2)C1c1cccnc1 (stereo not drawn) -2.1%
CCc1ccc(-n2c(SCC(=O)Nc3cc(C)[nH]n3)nc3[nH]ncc3c2=O)cc1 -1.2%
CC(NC(=O)Cc1ccc(-c2ccccc2)cc1)c1ccccc1 (stereo not drawn) 7.7%
CC(=O)c1c(C(C)=O)c(C)n(C2CCCCC2)c1C -1.3%
CCOc1ccc(OCC)c(NC(=O)CN(C)S(=O)(=O)c2cnc[nH]2)c1 3.7%
CCN(CC)c1nc(N2CCOCC2)c(C#N)c2c1CN(C)CC2 -1.2%
O=c1c2cnn(-c3ccc(F)cc3)c2ncn1Cc1ccc(F)cc1 2.9%
CCc1ccc2[nH]c(=O)c(CN(CCN(CC)CC)C(=O)NC3CCCCC3)cc2c1 -1.5%
COC(=O)/C=c1\sc2ncnn2c1=O -0.5%
CCc1cccc(C)c1NC(=O)c1cccc(N(C)C)c1 -0.4%
CCOCCCNC(=O)C1CCCN(S(=O)(=O)CC)C1 (stereo not drawn) 0.3%
Cc1ccc(-c2csc(N(Cc3ccco3)C(=O)c3cccs3)n2)cc1 4.8%
O=C1C=C(N2CCN(C(=O)c3ccccc3)CC2)C2(CCCCC2)O1 -4.4%
NC(=O)C1=NOC(CNc2ncc(C(F)(F)F)cc2Cl)C1 (stereo not drawn) -1.1%
O=C1NC(=O)C2(CCc3ccccc32)N1 (stereo not drawn) 2.7%
O=C(CN1CCN(c2ncc(C(F)(F)F)cc2Cl)CC1)NCCNc1ncc(C(F)(F)F)cc1Cl 55.4%
COc1ccc(-c2csc(Nc3ncccc3C)n2)cc1 -0.4%
CC(Oc1ccc(Cl)cc1Cl)C(=O)N(Cc1ccco1)C1CCS(=O)(=O)C1 (stereo not drawn) -0.5%
COc1ccccc1CNC(=O)c1cc2c(C)nn(Cc3ccc(F)cc3)c2s1 2.1%
CCOC(=O)c1c(=O)n(O)c2ccc(C)cc2[n+]1[O-] 3.2%
COc1ccccc1Nc1ncnc2ccccc12 2.9%
CC(=O)c1ccc(N2CCN(CCC#N)CC2)c(F)c1 8.2%
Cc1ccc(-c2ccc(CCC(=O)O)n2NC(=O)c2ccco2)cc1 3.9%
Cc1ccc(S(=O)(=O)N2CCN(C(=O)c3cc4c(C)nn(-c5ccccc5C)c4s3)CC2)cc1 -1.8%
CCCCc1n[nH]c2c1/C(=N/O)CC(c1ccccc1)C2 (stereo not drawn) 1%
O=C1c2ccccc2C(=O)N1OCc1ccc(Cl)cc1 -0.9%
CC(C)(C)n1ncc2c(=O)n(Cc3ccc(Cl)cc3Cl)cnc21 1.4%
O=c1c2ccccc2nc2ccc(NCc3ccco3)nn12 -1.2%
COc1ccc(Nc2ncnc3c2oc2ccccc23)cc1 -0.9%
COc1cc(/C=N/Nc2snc(SC)c2C#N)cc(OC)c1OC 0.9%
C=CCn1c(=N)c(C(=O)NCCCOC)cc2c(=O)n3cccc(C)c3nc21 2.4%
CCOc1ccc(N=C2NC(=O)C(CC(=O)O)S2)cc1 (stereo not drawn) 1.9%
CC(=O)N1CCN(C(=O)CSc2nc3c(cnn3-c3ccccc3)c(=O)[nH]2)CC1 -4.1%
COc1ccc(C(=O)NCc2cn3ccccc3n2)cc1 -3.2%
Cc1ccc(NC(=O)COc2ccccc2)c(NC(=O)c2ccccc2C)c1 -0.5%
COc1ccc(C(=O)CSc2nnc(CNC(=O)c3ccc(OC)c(OC)c3)n2C)cc1 0.7%
Fc1ccc(NC(=S)N2CCCC2)cc1 -1.6%
O=C(NCc1ccco1)c1ccc(CS(=O)(=O)Cc2ccc(F)cc2)o1 -3%
S=C(NCCC(c1ccccc1)c1ccccc1)Nc1cccc(Cl)c1 3.1%
O=[N+]([O-])c1ccc(N/N=C/c2cn(-c3ccccc3)nc2-c2ccccc2)cc1 -0.4%
CCOc1ccc(CCNC(=O)C2CCCN(c3nnc(-n4cccc4)s3)C2)cc1OCC (stereo not drawn) -2.8%
CN(Cc1nc(-c2ccccn2)no1)S(=O)(=O)c1ccc(Br)cc1 -0.1%
Cc1ccc(-c2nnc(SCC(=O)NCC3CCCO3)n2C)cc1 (stereo not drawn) 5.4%
CCOC(=O)C(C)On1c(-c2ccccc2)nc2ccc([N+](=O)[O-])cc21 (stereo not drawn) 4.1%
N#CC1=C(N)Oc2n[nH]c(-c3cccs3)c2C1c1ccsc1 (stereo not drawn) 8.2%
C=CCn1c(-c2ccco2)n[nH]c1=S -0.5%
N#CC1=C(N)NC(SCC(=O)Nc2ccc(Br)cc2)=C(C#N)C12CCCCC2 -1.1%
Cc1cc2cc(NC(=O)c3ccco3)ccc2[nH]1 -1.7%
CC(NC(=O)NCCCC(=O)O)(C(F)(F)F)C(F)(F)F 2%
Cc1n(CC(O)COC2CCCCC2)c2ccccc2[n+]1C (stereo not drawn) -0.4%
COc1ccc(C)cc1-n1nnnc1SCc1cn2ccsc2n1 -3.3%
Cc1cccc(NC(=O)c2cc(-c3ccco3)nc3ccccc23)n1 -0.2%
COc1ccc(-c2cc(C(F)F)n3ncc(C(=O)N4CCSCC4)c3n2)cc1 -4.4%
Cc1c(C(=O)NC(C)C)oc2c1-c1[nH]ncc1CC2 -0.6%
COc1cccc(C2C3=C(N=C4SCC(=O)N42)c2ccccc2CC3)c1OC (stereo not drawn) -3.4%
O=C1c2ccccc2C(=O)N1SC1CCCCC1 -1.8%
O=C(NCc1ccccc1)c1c[nH]c2ccc(S(=O)(=O)Nc3ccc4c(c3)OCCO4)cc2c1=O 1.8%
O=C(Nc1ccccc1C(=O)NCCCn1ccnc1)c1ccc(Cl)cc1Cl 3%
Cc1nn(Cc2ccccc2Cl)c(C)c1N -0.7%
CCOC(=O)N1CCN(C(c2cccnc2)c2ccc3cccnc3c2O)CC1 (stereo not drawn) -2%
CCOc1cc(CNc2ccc(O)cc2)ccc1OCc1ccc(Cl)cc1Cl 1.4%
O=c1cc(NCCO)c2ccccc2o1 -1.9%
CCCn1c(=O)[nH]c(=O)c2c1nc(-c1ccc(OC(F)(F)C(F)C(F)(F)F)cc1)n2CCOC (stereo not drawn) -0.5%
COc1ccc(-c2ccc(=O)n(CC(=O)Nc3ccc(C(=O)NC4CC4)cc3)n2)cc1OC 1.4%
Cc1nnc(N(CCC#N)CCC#N)s1 0%
CN(C)CCNC(=O)c1coc(=O)c(Br)c1 -1.1%
Cc1cccc(CN2C(=O)N/C(=C/c3ccc(C)s3)C2=O)c1 -1.5%
COC(=O)c1[nH]c2ccccc2c1NC(=O)CN1CCN(C(=O)c2ccco2)CC1 -1.7%
Cc1ccc2nc(-c3ccccc3)cn2c1 -3.7%

Reprinted at random: 2 entries already listed
inhibition, inactive:
CCn1c(C)nc2cc(C(=O)NNS(=O)(=O)c3ccc(C)c(C)c3)ccc21 -1.7%
CCc1ccc(-n2c(SCC(=O)Nc3cc(C)[nH]n3)nc3[nH]ncc3c2=O)cc1 -1.2%

Sorted by formula weight (largest number first): four of the compounds above
inhibition, inactive:
CCOc1cc(CNc2ccc(O)cc2)ccc1OCc1ccc(Cl)cc1Cl 1.4%
CC(C)CC(=O)Nc1ccc(C(=O)Cn2nc(C(=O)O)c3ccccc3c2=O)cc1 -3.3%
COc1ccc(-c2csc(Nc3ncccc3C)n2)cc1 -0.4%
Cc1cc2cc(NC(=O)c3ccco3)ccc2[nH]1 -1.7%

From PubChem BioAssay AID651664 (NMMLSC, 2012)
